Measurements taken from PMC10362714.
Results are given in words; binding and its absence hold for the method and conditions named. Binding seen in cells or lysates may run through a third protein. Some entries that bind do so weakly or less than the wild type.

By UniProt entry, the sequences of proteins in these tests, tags left out. Residues count along the entry.
UniProt P21796: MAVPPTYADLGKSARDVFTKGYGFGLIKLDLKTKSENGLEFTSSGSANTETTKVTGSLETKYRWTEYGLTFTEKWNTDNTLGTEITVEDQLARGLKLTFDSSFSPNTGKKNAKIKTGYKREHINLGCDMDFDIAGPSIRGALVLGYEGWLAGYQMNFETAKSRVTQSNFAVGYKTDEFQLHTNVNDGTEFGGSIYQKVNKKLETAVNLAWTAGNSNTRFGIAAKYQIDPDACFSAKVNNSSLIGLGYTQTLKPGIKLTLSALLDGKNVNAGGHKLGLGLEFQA
UniProt P38646, residues 47-679: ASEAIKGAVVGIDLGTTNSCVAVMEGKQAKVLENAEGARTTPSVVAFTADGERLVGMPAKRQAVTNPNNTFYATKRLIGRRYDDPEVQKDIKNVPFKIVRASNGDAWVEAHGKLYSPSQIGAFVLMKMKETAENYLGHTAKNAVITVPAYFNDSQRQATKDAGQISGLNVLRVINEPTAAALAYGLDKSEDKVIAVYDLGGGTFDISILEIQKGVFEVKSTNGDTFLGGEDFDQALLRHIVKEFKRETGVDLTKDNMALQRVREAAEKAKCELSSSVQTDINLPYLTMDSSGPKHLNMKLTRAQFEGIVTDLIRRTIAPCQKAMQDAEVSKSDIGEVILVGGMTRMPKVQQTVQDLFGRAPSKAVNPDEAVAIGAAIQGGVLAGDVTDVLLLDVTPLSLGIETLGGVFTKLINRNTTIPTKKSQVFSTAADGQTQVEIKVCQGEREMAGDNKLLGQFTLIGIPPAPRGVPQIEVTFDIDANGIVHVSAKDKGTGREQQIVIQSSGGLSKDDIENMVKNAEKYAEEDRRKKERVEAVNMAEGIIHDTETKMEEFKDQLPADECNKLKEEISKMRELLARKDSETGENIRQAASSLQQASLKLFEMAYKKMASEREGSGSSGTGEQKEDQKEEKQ

Target: voltage-dependent anion channel 1 (VDAC1), human, in SH-SY5Y cells (human (endogenous in SH-SY5Y)) (UniProt P21796)
Test: co-IP; SH-SY5Y cells lysed in RIPA buffer and sonicated; 2 mg protein with 4 ug anti-VDAC1 polyclonal antibody overnight at 4 C, protein A/G agarose beads 4-6 h, washed thrice with cold PBS, western blot; cells in normal or high glucose (25 mM, 48 h), with or without lentiviral SIRT3 overexpression

binding: binds
Substance: glucose-regulated protein 75 (GRP75), human, in SH-SY5Y cells (from UniProt P38646 47-679)
